From paper PMC12117998 (Chembiochem, 2025) come the findings set out here.

No end group written: not given here.

The first data set deals with HeLa cells. The experiment in a line: Co‐localization studies (confocal microscopy, PCC and MOC). The data set is classed as cell-based. The settings on record: 30 min, 5 μM CF‐DC‐2, LysoTracker Red DND‐99, mean ± SD of ≥37 cells, n = 2. The protocol: HeLa cells (30,000–40,000) were seeded into an 8‐well ibidi. For lysosomal and lipid droplet analysis, cells were treated for 30 min with 5 μM of CF‐labeled peptide combined with either 100 nM LysoTracker Red DND‐99 (Invitrogen) or a 1:1000 solution of distyryl Bodipy lipid droplet stain synthesized and kindly provided by Engelhardt et al.^[ [67] ^] diluted in serum‐free media under standard growth conditions. For Golgi analysis, cells were treated for 2 h with 5 μM CF‐labeled peptide under standard growth conditions. For the last 30 min of the incubation period, 1:100 BODIPY TR ceramide complexed to bovine serum albumine (BSA) (Invitrogen) was directly diluted into the well and incubated for the last 30 min together with the peptide. For ER staining, CellLight ER‐RFP, BacMam 2.0 (Invitrogen), was added to the cells and incubated overnight under standard growth conditions. The next day, the cells were treated for 2 h with 5 μM CF‐labeled peptides as described earlier. After the peptide and stain incubation, cells were washed three to four times with serum‐free medium. Finally, complete medium was added, and cells were imaged on the Ultra‐View VoX Spinning Disk Confocal Microscope (Perkin Elmer) on a Plan‐Apo Tirf 60X oil objective (NA 1.49, Nikon) at 37 °C and 5% CO2. Images were cropped and processed using Fiji. Pearson and Manders’ Coefficients were calculated using the JaCoP analysis tool.^[ [68] ^] For Golgi analysis, no PCC or MOC was determined as the unedited images contained a strong background signal.
For the substance “GLRKRLRKFRNKKMDHHCPW-NH2 [DC‐2, CPP sC18* fused to the DHHC motif derived from ZDHHC2/3/6/7/15/16/20]”, the “Mander's overlap coefficient (MOC), lysosomes” value came out at 0.26 ± 0.14 and the “Pearson correlation coefficient (PCC), lysosomes” value is 0.48 ± 0.14.

Still in this data set, the particulars now being: 30 min, 5 μM CF‐DC‐2, distyryl Bodipy lipid droplet stain, mean ± SD of ≥37 cells, n = 2.
Consider “GLRKRLRKFRNKKMDHHCPW-NH2 [DC‐2, CPP sC18* fused to the DHHC motif derived from ZDHHC2/3/6/7/15/16/20]”, for which the “Mander's overlap coefficient (MOC), lipid droplets” value is 0.05 ± 0.05 and the “Pearson correlation coefficient (PCC), lipid droplets” value is given as 0.19 ± 0.08.

Tested on in the next data set: not listed separately
Nature of the data set: general procedure: Fmoc solid-phase peptide synthesis; Rinkamide resin; oxyma/N,N'-diisopropylcarbodiimide; HATU/DIPEA (CF labelling). The settings on record: whole synthesis, LC-MS with UV chromatograms, 10-60% ACN in 15 min.
Regarding GLRKRLRKFRNKRYDHHCPW-NH2, the “purity (crude or final not stated)” value is given as 92%. The same measure, in the same setting: under GLRKRLRKFRNKGFDHHCKW-NH2 stands 93%. Take CF-GLRKRLRKFRNKKMDHHCPW-NH2: the “crude purity (method not given)” value came to 87%. For the substance GLRKRLRKFRNK-NH2, the “purity (crude or final not stated)” value was determined as 98%. Regarding CF-GLRKRLRKFRNKKFDHHCPW-NH2, the “crude purity (method not given)” value worked out at 91%. Still for that read-out and setting: next, CF-GLRKRLRKFRNKRHDHHCFF-NH2: 98%.

On to GLRKRLRKFRNKKMDHHCPW-NH2, for which the “purity (crude or final not stated)” value stood at 93%. Regarding CF-GLRKRLRKFRNKDFDHHCKW-NH2, the “final purity (method not given)” value is 98%. Turning to CF-GLRKRLRKFRNKRFDHHCVW-NH2, the “crude purity (method not given)” value turned out to be 96%.

With GLRKRLRKFRNKKMDHHAPW-NH2, the “purity (crude or final not stated)” value amounted to 97%. The same measure, in the same setting: next, GLRKRLRKFRNKEFDHHCPW-NH2: 93%. Regarding CF-GLRKRLRKFRNKRMDHHCPW-NH2, the “final purity (method not given)” value worked out at 98%. Regarding CF-GLRKRLRKFRNKRMDHHCVW-NH2, the “final purity (method not given)” value worked out at 95%.

Take CF-GLRKRLRKFRNKKMDHHAPW-NH2: the “crude purity (method not given)” value is listed as 87%. As for GLRKRLRKFRNKDFDHHCKW-NH2, the “purity (crude or final not stated)” value is recorded as 92%.

For the substance GLRKRLRKFRNKDFDHHCPW-NH2, the “purity (crude or final not stated)” value is reported as 94%. Same read-out and setting: under GLRKRLRKFRNKRRDHHCRL-NH2 stands 98%; under GLRKRLRKFRNKRHDHHCFF-NH2, 94%. Regarding CF-GLRKRLRKFRNKEFDHHCPW-NH2, the “final purity (method not given)” value amounted to 95%.

Turning to GLRKRLRKFRNKRFDHHCVW-NH2, the “purity (crude or final not stated)” value is on record as 92%. Take CF-GLRKRLRKFRNK-NH2: the “final purity (method not given)” value is listed as 98%. In the case of GLRKRLRKFRNKRMDHHCVW-NH2, the “purity (crude or final not stated)” value is listed as 93%. Take CF-GLRKRLRKFRNKGFDHHCKW-NH2: the “crude purity (method not given)” value was found to be 87%.

For CF-GLRKRLRKFRNKRFDHHCPW-NH2, the “final purity (method not given)” value amounted to 96%. As for GLRKRLRKFRNKRFDHHCPW-NH2, the “purity (crude or final not stated)” value turned out to be 96%. On the same count and under the same terms, next, GLRKRLRKFRNKRYDQHCLW-NH2: 94%.

Turning to CF-GLRKRLRKFRNKRRDHHCRL-NH2, the “crude purity (method not given)” value is 96%. As for GLRKRLRKFRNKRMDHHCPW-NH2, the “purity (crude or final not stated)” value is 95%. With CF-GLRKRLRKFRNKDFDHHCPW-NH2, the “crude purity (method not given)” value was 93%.

As to CF-GLRKRLRKFRNKRYDQHCLW-NH2, the “final purity (method not given)” value came out at 98%. Consider CF-GLRKRLRKFRNKRYDHHCPW-NH2, for which the “crude purity (method not given)” value is 91%. Take GLRKRLRKFRNKKFDHHCPW-NH2: the “purity (crude or final not stated)” value came to 96%.
